No constants are given. Whether binding was seen depends on the method and setting. In cells and extracts the contact can be indirect. Some binding calls cover weakened binding; strength is not graded here.

Protein sequences, listed by entry. Tags and fused reporters are not part of them. Residues count along the entry.
UniProt P02545, residues 1-646: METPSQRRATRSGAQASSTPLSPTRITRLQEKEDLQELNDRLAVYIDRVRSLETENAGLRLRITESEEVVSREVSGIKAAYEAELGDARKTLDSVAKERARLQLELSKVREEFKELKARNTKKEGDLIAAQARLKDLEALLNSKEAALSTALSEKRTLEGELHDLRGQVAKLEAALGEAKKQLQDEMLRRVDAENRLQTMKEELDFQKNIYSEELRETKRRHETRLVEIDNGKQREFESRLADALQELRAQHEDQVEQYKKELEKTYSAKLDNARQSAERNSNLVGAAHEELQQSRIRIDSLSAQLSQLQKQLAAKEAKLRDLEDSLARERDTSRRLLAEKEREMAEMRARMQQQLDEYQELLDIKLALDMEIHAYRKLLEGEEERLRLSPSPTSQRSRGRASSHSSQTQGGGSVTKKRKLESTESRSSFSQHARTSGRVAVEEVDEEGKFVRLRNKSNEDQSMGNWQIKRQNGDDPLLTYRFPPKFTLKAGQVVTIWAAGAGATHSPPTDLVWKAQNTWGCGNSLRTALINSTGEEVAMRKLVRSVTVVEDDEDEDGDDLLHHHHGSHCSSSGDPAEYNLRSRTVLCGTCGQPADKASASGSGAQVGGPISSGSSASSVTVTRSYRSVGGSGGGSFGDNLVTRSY
UniProt Q86WV6: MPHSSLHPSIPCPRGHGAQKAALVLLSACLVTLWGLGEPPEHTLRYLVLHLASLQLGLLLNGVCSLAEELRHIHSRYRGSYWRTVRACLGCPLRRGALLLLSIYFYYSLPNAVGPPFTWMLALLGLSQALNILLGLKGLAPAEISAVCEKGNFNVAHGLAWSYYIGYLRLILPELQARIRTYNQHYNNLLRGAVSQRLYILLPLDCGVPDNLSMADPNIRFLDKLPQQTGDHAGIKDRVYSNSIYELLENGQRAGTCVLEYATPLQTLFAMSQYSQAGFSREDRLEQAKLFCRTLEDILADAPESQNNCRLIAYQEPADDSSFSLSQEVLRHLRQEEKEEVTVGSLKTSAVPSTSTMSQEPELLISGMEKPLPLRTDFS

This test has as its target Lamin A-GFP (UniProt P02545). The test is described as follows: FRET or BRET.

With STING-RFP (from UniProt Q86WV6 1-379), the binding entry is listed as “binds”.

The values are drawn from doi:10.1101/2020.12.21.423744.
